Measured data: PubChem BioAssay AID1259316 (Drosophila RNAi Screening Center, 2017)
Screen: 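Fly genes whose loss alters survival of cells exposed to excess manganese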. System: Drosophila S2R+ cells. Reagent: long dsRNA against Drosophila genes. Time to read-out: 5 days (4 days knock-down, then 1 day with metal). Treatment: manganese chloride added to 15 mM for the last 24 hours. Measured: 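Viability as luciferase-measured ATP after 4 days knock-down plus 24 hours in 15 mM manganese chloride; z-scores averaged across two replicates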. Reading the numbers: ATP z-score, set 1 (call basis) and ATP z-score: higher = more ATP, more viable cells under manganese. Call rule: 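Active means the set 1 averaged z-score lies outside the range -1.5 to 1.5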. Meaning of the calls: active = ATP shifted up or down; inactive = no clear ATP shift.
The whole screen tested 95 reagents; this is an unselected part. 12 of them (13%) were called active. 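Calls follow set 1 z-scores only; applying the same cut-off to set 2 alone does not give the same calls.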 The record does not give: the amount of reagent.

anne (anne boleyn) [DRSC29952]: ATP z-score, set 1 (call basis) = -0.695; ATP z-score, set 2 = 0.0281; outcome = inactive
anne (anne boleyn) [DRSC40853]: ATP z-score, set 1 (call basis) = -0.203; ATP z-score, set 2 = -0.356; outcome = inactive
MFS14 (Major Facilitator Superfamily Transporter 14) [DRSC06524]: ATP z-score, set 1 (call basis) = 0.0612; ATP z-score, set 2 = 0.161; outcome = inactive
MFS14 (Major Facilitator Superfamily Transporter 14) [DRSC39753]: ATP z-score, set 1 (call basis) = -0.603; ATP z-score, set 2 = -0.143; outcome = inactive
CHMP2B (Charged multivesicular body protein 2b) [DRSC10436]: ATP z-score, set 1 (call basis) = -0.629; ATP z-score, set 2 = -0.737; outcome = inactive
CHMP2B (Charged multivesicular body protein 2b) [DRSC26221]: ATP z-score, set 1 (call basis) = 1.64; ATP z-score, set 2 = 0.512; outcome = active
ATP7 [DRSC19819]: ATP z-score, set 1 (call basis) = 0.443; ATP z-score, set 2 = -0.765; outcome = inactive
ATP7 [DRSC39460]: ATP z-score, set 1 (call basis) = -0.668; ATP z-score, set 2 = -0.0919; outcome = inactive
Vha68-2 (Vacuolar H[+] ATPase 68 kDa subunit 2) [DRSC28637]: ATP z-score, set 1 (call basis) = 3.11; ATP z-score, set 2 = 2.91; outcome = active
Vha68-2 (Vacuolar H[+] ATPase 68 kDa subunit 2) [DRSC31692]: ATP z-score, set 1 (call basis) = 1.92; ATP z-score, set 2 = 2.34; outcome = active
Sod1 (Superoxide dismutase 1) [DRSC11286]: ATP z-score, set 1 (call basis) = 1.34; ATP z-score, set 2 = 0.827; outcome = inactive
Sod1 (Superoxide dismutase 1) [DRSC40766]: ATP z-score, set 1 (call basis) = 0.296; ATP z-score, set 2 = 0.322; outcome = inactive
stw (straw) [DRSC04842]: ATP z-score, set 1 (call basis) = 0.0127; ATP z-score, set 2 = -0.49; outcome = inactive
stw (straw) [DRSC04843]: ATP z-score, set 1 (call basis) = -0.678; ATP z-score, set 2 = -0.144; outcome = inactive

Continued (3 carried over from the part before).
Sod1 (Superoxide dismutase 1) [DRSC40766]: ATP z-score, set 1 (call basis) = 0.296; ATP z-score, set 2 = 0.322; outcome = inactive
stw (straw) [DRSC04842]: ATP z-score, set 1 (call basis) = 0.0127; ATP z-score, set 2 = -0.49; outcome = inactive
stw (straw) [DRSC04843]: ATP z-score, set 1 (call basis) = -0.678; ATP z-score, set 2 = -0.144; outcome = inactive
foi (fear-of-intimacy) [DRSC29596]: ATP z-score, set 1 (call basis) = -1.6; ATP z-score, set 2 = -1.45; outcome = active
foi (fear-of-intimacy) [DRSC35740]: ATP z-score, set 1 (call basis) = 0.153; ATP z-score, set 2 = 0.123; outcome = inactive
MFS10 (Major Facilitator Superfamily Transporter 10) [DRSC26960]: ATP z-score, set 1 (call basis) = 0.8; ATP z-score, set 2 = 0.818; outcome = inactive
MFS10 (Major Facilitator Superfamily Transporter 10) [DRSC36116]: ATP z-score, set 1 (call basis) = -0.179; ATP z-score, set 2 = 0.155; outcome = inactive
mTor (mechanistic Target of rapamycin) [DRSC02811]: ATP z-score, set 1 (call basis) = -0.0316; ATP z-score, set 2 = -0.185; outcome = inactive
mTor (mechanistic Target of rapamycin) [DRSC40810]: ATP z-score, set 1 (call basis) = 0.15; ATP z-score, set 2 = 0.381; outcome = inactive
Vha36-1 (Vacuolar H[+] ATPase 36kD subunit 1) [DRSC07098]: ATP z-score, set 1 (call basis) = 1.62; ATP z-score, set 2 = 1.64; outcome = active
Vha36-1 (Vacuolar H[+] ATPase 36kD subunit 1) [DRSC25624]: ATP z-score, set 1 (call basis) = 0.737; ATP z-score, set 2 = 1.67; outcome = inactive
Alk (Anaplastic lymphoma kinase) [DRSC23342]: ATP z-score, set 1 (call basis) = -0.401; ATP z-score, set 2 = -0.367; outcome = inactive
Alk (Anaplastic lymphoma kinase) [DRSC33404]: ATP z-score, set 1 (call basis) = -0.113; ATP z-score, set 2 = -0.214; outcome = inactive
Alk (Anaplastic lymphoma kinase) [DRSC36973]: ATP z-score, set 1 (call basis) = -0.308; ATP z-score, set 2 = -0.0196; outcome = inactive
Atox1 (Antioxidant 1 copper chaperone) [DRSC22416]: ATP z-score, set 1 (call basis) = -0.186; ATP z-score, set 2 = 0.0122; outcome = inactive
rl (rolled) [DRSC31395]: ATP z-score, set 1 (call basis) = -0.244; ATP z-score, set 2 = 0.441; outcome = inactive
rl (rolled) [DRSC31396]: ATP z-score, set 1 (call basis) = -0.821; ATP z-score, set 2 = -0.459; outcome = inactive
sp3 (spermathreecae) [DRSC16354]: ATP z-score, set 1 (call basis) = 0.384; ATP z-score, set 2 = -0.146; outcome = inactive
sp3 (spermathreecae) [DRSC41446]: ATP z-score, set 1 (call basis) = 0.341; ATP z-score, set 2 = -0.175; outcome = inactive
SPoCk (Secretory Pathway Calcium atpase) [DRSC11844]: ATP z-score, set 1 (call basis) = 0.106; ATP z-score, set 2 = -0.565; outcome = inactive
SPoCk (Secretory Pathway Calcium atpase) [DRSC24007]: ATP z-score, set 1 (call basis) = -0.288; ATP z-score, set 2 = -0.181; outcome = inactive
iPLA2-VIA (calcium-independent phospholipase A2 VIA) [DRSC10699]: ATP z-score, set 1 (call basis) = 0.414; ATP z-score, set 2 = -0.0773; outcome = inactive
iPLA2-VIA (calcium-independent phospholipase A2 VIA) [DRSC37171]: ATP z-score, set 1 (call basis) = 0.189; ATP z-score, set 2 = -0.665; outcome = inactive
alphaCOP (Coat Protein (coatomer) alpha) [DRSC08706]: ATP z-score, set 1 (call basis) = 0.125; ATP z-score, set 2 = -1.02; outcome = inactive
alphaCOP (Coat Protein (coatomer) alpha) [DRSC30831]: ATP z-score, set 1 (call basis) = -0.808; ATP z-score, set 2 = -0.765; outcome = inactive
alphaCOP (Coat Protein (coatomer) alpha) [DRSC30832]: ATP z-score, set 1 (call basis) = -1.28; ATP z-score, set 2 = -0.995; outcome = inactive
Pop2 [DRSC10537]: ATP z-score, set 1 (call basis) = 0.963; ATP z-score, set 2 = 1.17; outcome = inactive
Pop2 [DRSC32413]: ATP z-score, set 1 (call basis) = 2.15; ATP z-score, set 2 = 2.83; outcome = active
Syx5 (Syntaxin 5) [DRSC03432]: ATP z-score, set 1 (call basis) = 0.812; ATP z-score, set 2 = 1.21; outcome = inactive
Syx5 (Syntaxin 5) [DRSC40872]: ATP z-score, set 1 (call basis) = 0.914; ATP z-score, set 2 = 0.15; outcome = inactive
